Here are results for one molecule from paper PMC11711618.

Protein sequences, listed by entry. Tags and fused reporters are not part of them. Residues count along the entry.
UniProt Q13873, residues 27-1038: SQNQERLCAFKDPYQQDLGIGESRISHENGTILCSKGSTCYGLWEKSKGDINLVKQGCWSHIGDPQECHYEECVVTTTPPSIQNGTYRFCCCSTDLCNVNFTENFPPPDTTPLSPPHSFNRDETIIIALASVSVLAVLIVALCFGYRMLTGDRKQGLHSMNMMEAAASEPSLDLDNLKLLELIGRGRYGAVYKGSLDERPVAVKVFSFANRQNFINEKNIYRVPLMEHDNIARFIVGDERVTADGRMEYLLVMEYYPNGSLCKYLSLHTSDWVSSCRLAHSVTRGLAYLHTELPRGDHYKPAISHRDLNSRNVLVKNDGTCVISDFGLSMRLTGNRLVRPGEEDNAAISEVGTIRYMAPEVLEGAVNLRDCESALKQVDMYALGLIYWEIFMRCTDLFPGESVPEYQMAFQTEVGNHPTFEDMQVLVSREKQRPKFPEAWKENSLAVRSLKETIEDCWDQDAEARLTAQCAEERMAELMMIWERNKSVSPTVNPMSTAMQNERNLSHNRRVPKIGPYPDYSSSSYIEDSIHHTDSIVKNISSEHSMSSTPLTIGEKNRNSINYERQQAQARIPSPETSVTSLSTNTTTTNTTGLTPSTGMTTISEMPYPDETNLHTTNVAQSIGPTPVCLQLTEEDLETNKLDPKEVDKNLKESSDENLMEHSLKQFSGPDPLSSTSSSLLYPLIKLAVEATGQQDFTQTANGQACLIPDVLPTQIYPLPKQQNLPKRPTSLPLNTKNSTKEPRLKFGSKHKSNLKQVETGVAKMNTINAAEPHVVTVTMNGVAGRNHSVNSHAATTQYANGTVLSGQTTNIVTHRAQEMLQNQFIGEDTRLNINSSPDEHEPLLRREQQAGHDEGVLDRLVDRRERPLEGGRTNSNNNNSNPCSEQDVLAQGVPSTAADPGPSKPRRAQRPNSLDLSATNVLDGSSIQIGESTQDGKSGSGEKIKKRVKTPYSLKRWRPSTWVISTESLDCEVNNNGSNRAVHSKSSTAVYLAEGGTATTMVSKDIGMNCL

Results are given in words; binding and its absence hold for the method and conditions named. Binding seen in cells or lysates may run through a third protein. Some binding calls cover weakened binding; strength is not graded here. Where a sequence is shown, tags or fusion partners need not be part of it.

The target in the assay is BMPR2 (tagged, expressed in HUVECs) (human) (UniProt Q13873). As to the kind of experiment: proximity ligation; DuoLink in situ PLA on transfected HUVECs expressing the two tagged proteins, seeded on glass cover slips in EC activation medium; signal seen in filopodia.

B1: CDC42-effector protein 1 (CDC42EP1), also known as binder of Rho GTPase 5 (BORG5), tagged (protein, UniProt Q00587 1-391)
chain: MPGPQGGRGAATMSLGKLSPVGWVSSSQGKRRLTADMISHPLGDFRHTMHVGRGGDVFGDTSFLSNHGGSSGSTHRSPRSFLAKKLQLVRRVGAPPRRMASPPAPSPAPPAISPIIKNAISLPQLNQAAYDSLVVGKLSFDSSPTSSTDGHSSYGLDSGFCTISRLPRSEKPHDRDRDGSFPSEPGLRRSDSLLSFRLDLDLGPSLLSELLGVMSLPEAPAAETPAPAANPPAPTANPTGPAANPPATTANPPAPAANPSAPAATPTGPAANPPAPAASSTPHGHCPNGVTAGLGPVAEVKSSPVGGGPRGPAGPALGRHWGAGWDGGHHYPEMDARQERVEVLPQARASWESLDEEWRAPQAGSRTPVPSTVQANTFEFADAEEDDEVKV
For the molecule B1, the binding entry is recorded as “binds”.
